For experiment [1], the target named is T1, biotinylated peptide 6, APN 39–47 pSer44 (human).
T1 sequence (peptide, phosphoserine at 44 (KNANSpSPVA); biotin via a PEG4 linker): KNANSSPVA
As to the kind of experiment: pull-down; biotinylated peptide on streptavidin Sepharose beads, incubated 120 min in lysate of E. coli overexpressing His6-14-3-3; 50 mM HEPES pH 7.4, 250 mM NaCl, 20 mM MgCl2; SDS-PAGE, NTA-Atto488 and Coomassie stain; only the target purified.

The chains behind the UniProt entries cited, without tags or fusion partners.
UniProt P31946: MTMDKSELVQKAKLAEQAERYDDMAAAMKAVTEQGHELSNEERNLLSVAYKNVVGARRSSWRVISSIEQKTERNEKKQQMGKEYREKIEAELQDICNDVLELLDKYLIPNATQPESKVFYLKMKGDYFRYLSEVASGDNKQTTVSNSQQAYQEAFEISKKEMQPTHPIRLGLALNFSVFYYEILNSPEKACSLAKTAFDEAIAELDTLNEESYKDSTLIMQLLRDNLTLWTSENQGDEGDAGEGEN

Experiment [2] deals with T2, biotinylated peptide 1, APN 38–46 pSer43 (human).
T2 sequence (peptide, phosphoserine at 43 (NKNANpSSPV); biotin via a PEG4 linker): NKNANSSPV
The description is as above.

No constants are given. Whether binding was seen depends on the method and setting. In cells and extracts the contact can be indirect. Some binding calls cover weakened binding; strength is not graded here.

Regarding “14-3-3β/α, full length, N-terminally His6-tagged (from UniProt P31946 1-246)”, the binding entry in experiment [1] was “no binding”; in experiment [2] it was “binds”.

The record behind these values is publication PMC7939381, “MMP activation–associated aminopeptidase N reveals a bivalent 14-3-3 binding motif” (The Journal of Biological Chemistry, 2021).
